PubChem BioAssay AID602196 – INSERM – 2012
Shown is one part, drawn at random, of about 23,000 reagents tested. 455 of all reagents (2%) were called active. 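Active includes both protection and sensitisation; some change values fall well beyond the stated -50 to +50 range.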 Further read-outs or replicates are left out here. Not given: the amount of reagent.

Aim: 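Modifiers of cisplatin sensitivity in A549 cells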
Cell system: human A549 lung cancer cells
Reagent: siRNA pair against human genes
Timing: 48 h transfection before cisplatin; time from cisplatin to read-out not stated
Treatment: cisplatin at a dose killing half of control-siRNA cells; exact dose and duration not given
Measured: 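Cisplatin cell death as a shift from the 50% death seen with control siRNA; siRNAs toxic or growth-blocking alone scored 0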
Scale: two-siRNA summed score (-2 to +2): higher = both siRNAs protect from cisplatin killing; -2 means both sensitise; mean protection from cisplatin (shift in death) and protection from cisplatin (shift in death), siRNA C: higher = protection from cisplatin killing
Call rule: 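Each siRNA scores 0 if harmful alone by LDH or WST-1, otherwise +1 if it reduces and -1 if it increases cisplatin killing; a gene is active when both siRNAs agree (sum +2 or -2)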
Meaning of the calls: active = both siRNAs shift cisplatin killing the same way; inactive = no consistent shift, or siRNA harmful alone

| gene symbol | PubChem SID | two-siRNA summed score (-2 to +2) | mean protection from cisplatin (shift in death) (%) | protection from cisplatin (shift in death), siRNA C (%) | Call |
| --- | --- | --- | --- | --- | --- |
| TRHDE | SID131501645 | -1 | -8.4 | 18.7 | inactive |
| LOC442697 | SID131518074 | 0 | 16.3 | 16.6 | inactive |
| PPIF | SID131507415 | 0 | -0.2 | 2.4 | inactive |
| C3 | SID131506959 | 0 | -0.7 | 3.5 | inactive |
| PABPN1 | SID131508876 | 0 | 1.6 | 9.6 | inactive |
| FADD | SID131511208 | 0 | 4.1 | 5.7 | inactive |
| LOC388337 | SID131502362 | -1 | -3.1 | -15.1 | inactive |
| TUBGCP3 | SID131504777 | 0 | -4.5 | -3.8 | inactive |
| DNAH7 | SID131500995 | -1 | -13.6 | -26.1 | inactive |
| CXCR3 | SID131504515 | 0 | -5.2 | 4.7 | inactive |
| FAM120A | SID131516406 | 0 | 10.8 | 12.8 | inactive |
| TAF12 | SID131520711 | 1 | 10.9 | 12.5 | inactive |
| TGIF2LX | SID131517481 | 0 | 13.6 | 11.4 | inactive |
| FBXO17 | SID131505993 | 0 | -2.2 | -12.3 | inactive |
| GLI1 | SID131502882 | 0 | -20.2 | 9.1 | inactive |
| LINC02893 | SID131514807 | 0 | 8.3 | 11.9 | inactive |
| TUBA4A | SID131513262 | 0 | 6.4 | -3.1 | inactive |
| RMI2 | SID131513041 | 0 | 6.1 | 2.4 | inactive |
| NFS1 | SID131516138 | 0 | 10.3 | -2.6 | inactive |
| STARD5 | SID131502394 | -1 | -2.7 | 16.3 | inactive |
| BRICD5 | SID131514732 | 0 | 8.2 | 10.9 | inactive |
| PRX | SID131503680 | 0 | -8.5 | -9.9 | inactive |
| NETO2 | SID131506045 | 0 | -2.1 | -5.3 | inactive |
| PPP2R5E | SID131519389 | 1 | 5.2 | 9 | inactive |
| DLEC1 | SID131512154 | 0 | 5.2 | 4.7 | inactive |
| SEMA5A | SID131511332 | 0 | 4.2 | -13.2 | inactive |
| LOC253314 | SID131514428 | 0 | 7.8 | 9.4 | inactive |
| LOC442708 | SID131519717 | 1 | 7.1 | -6 | inactive |
| FASN | SID131504925 | 0 | -4.2 | -3.1 | inactive |
| LOC442622 | SID131521354 | 1 | 13.1 | 8.9 | inactive |
| LOC344760 | SID131505945 | 0 | -2.3 | 0.2 | inactive |
| STMN3 | SID131503606 | 0 | -8.9 | -15.6 | inactive |
| DNAH10 | SID131520072 | 1 | 8.6 | 2.1 | inactive |
| MMAB | SID131510356 | 0 | 3.2 | 1.8 | inactive |
| DENND2D | SID131505745 | 0 | -2.6 | -4.5 | inactive |
| LHPP | SID131508009 | 0 | 0.5 | -7.5 | inactive |
| LOC442274 | SID131501825 | -1 | -7.2 | -7.2 | inactive |
| H2AC1 | SID131520931 | 1 | 11.6 | 8.1 | inactive |
| SPPL2C | SID131507742 | 0 | 0.2 | -3.6 | inactive |
| CFAP69 | SID131502222 | -1 | -4.2 | 10.1 | inactive |
| LOC441328 | SID131509407 | 0 | 2.1 | -6.5 | inactive |
| CCR2 | SID131519792 | 1 | 7.5 | -5 | inactive |
| SNTA1 | SID131514110 | 0 | 7.4 | -6.3 | inactive |
| ZNF773 | SID131519442 | 1 | 5.6 | -1.6 | inactive |
| SYT4 | SID131522366 | 1 | 18 | 27.9 | inactive |
| IP6K2 | SID131512902 | 0 | 6 | 10.9 | inactive |
| ZNF385A | SID131507650 | 0 | 0.1 | -3.1 | inactive |
| FH | SID131516942 | 0 | 12 | 2.1 | inactive |
| LOC441922 | SID131522056 | 1 | 16 | 10.1 | inactive |
| CAP1 | SID131504744 | 0 | -4.6 | -2 | inactive |
| ABCF1 | SID131518913 | 1 | -7.6 | 9.8 | inactive |
| METTL6 | SID131507651 | 0 | 0.1 | 3.2 | inactive |
| SIX2 | SID131523225 | 2 | 28.6 | 30.6 | active |
| PRPF38B | SID131514102 | 0 | 7.4 | 3.4 | inactive |
| PDCD6 | SID131504733 | 0 | -4.6 | -7.1 | inactive |
| TRMT6 | SID131505953 | 0 | -2.3 | -10.4 | inactive |
| NKAIN1 | SID131510379 | 0 | 3.2 | 4.4 | inactive |
| CAPN5 | SID131518878 | 0 | 35.8 | 4.4 | inactive |
| LOC388107 | SID131515935 | 0 | 9.9 | 14.8 | inactive |
| MEF2A | SID131506529 | 0 | -1.4 | 3.2 | inactive |
| WIF1 | SID131507515 | 0 | 0 | -4.4 | inactive |
| INPP5D | SID131510350 | 0 | 3.2 | 6.1 | inactive |
| SELL | SID131507154 | 0 | -0.5 | -7.8 | inactive |
| LSMEM2 | SID131514487 | 0 | 7.9 | 8.2 | inactive |
| CERCAM | SID131515829 | 0 | 9.8 | 12.6 | inactive |
| LOC441151 | SID131521981 | 1 | 15.7 | 23.1 | inactive |
| LOC441196 | SID131506513 | 0 | -1.4 | -4.2 | inactive |
| LOC401619 | SID131515292 | 0 | 8.9 | 7.9 | inactive |
| DKFZP434M131 | SID131520326 | 1 | 9.5 | -10.5 | inactive |
| ARID5B | SID131512355 | 0 | 5.4 | 4.3 | inactive |
| LOC440373 | SID131515165 | 0 | 8.8 | 9.9 | inactive |
| PSG6 | SID131516229 | 0 | 10.5 | 0.1 | inactive |
| TCHHL1 | SID131512809 | 0 | 5.9 | 7.5 | inactive |

Reprinted from the listing (8 entries):
| gene symbol | PubChem SID | two-siRNA summed score (-2 to +2) | mean protection from cisplatin (shift in death) (%) | protection from cisplatin (shift in death), siRNA C (%) | Call |
| --- | --- | --- | --- | --- | --- |
| LOC344760 | SID131505945 | 0 | -2.3 | 0.2 | inactive |
| STMN3 | SID131503606 | 0 | -8.9 | -15.6 | inactive |
| DNAH10 | SID131520072 | 1 | 8.6 | 2.1 | inactive |
| MMAB | SID131510356 | 0 | 3.2 | 1.8 | inactive |
| DENND2D | SID131505745 | 0 | -2.6 | -4.5 | inactive |
| LHPP | SID131508009 | 0 | 0.5 | -7.5 | inactive |
| LOC442274 | SID131501825 | -1 | -7.2 | -7.2 | inactive |
| H2AC1 | SID131520931 | 1 | 11.6 | 8.1 | inactive |
